# Results deposited as PubChem BioAssay AID1259254 (NCATS, 2017).
# Aim: 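Genome-wide screen for genes that prevent DNA re-replication in cancer cells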 (primary screen)
# Cell system: human HCT116 colorectal cancer cells
# Knock-down reagent: single siRNA against human genes
# Time to read-out: 3 days
# Measurement: 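Imaged Hoechst DNA stain sorts each cell into a cycle phase by DNA amount; per plate, G2 fraction set to 0% for non-targeting and 100% for GMNN siRNA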
# Direction: G2 robust z-score and G2 cells, % of GMNN control: higher = more G2 cells, more excess DNA replication; raw share of cells in G2: higher = larger share of cells with G2 DNA content
# Hit rule: 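Active siRNAs have a G2 robust z of 5 or more median absolute deviations over the median, which in these data means about 38% or higher of GMNN control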
# This is one part, drawn at random, of about 59,000 deposited reagents. About 1,550 of all reagents (2.6%) were called active. 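G2 share is only a proxy for re-replication; each gene was hit by three separate siRNAs, and active genes were retested.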 Raw values vary from plate to plate and are shown uncorrected. The numbers tell different reagents against one gene apart. Reagent sequences are not shown. Not stated in the record: the amount of reagent.
gene knocked down,siRNA no.,G2 robust z-score,"G2 cells, % of GMNN control",raw share of cells in G2 (%),activity call
SSU72L6 (SSU72 like 6),1,-0.729,-2.17,3.36,inactive
SSU72L6 (SSU72 like 6),2,-0.869,-3.14,2.11,inactive
SSU72L6 (SSU72 like 6),3,-0.16,1.84,3.25,inactive
RRBP1 (ribosome binding protein 1),1,-0.303,0.832,5.26,inactive
RRBP1 (ribosome binding protein 1),2,2.71,22,13.1,inactive
RRBP1 (ribosome binding protein 1),3,-0.184,1.67,4.7,inactive
RPAP3 (RNA polymerase II associated protein 3),1,-0.175,1.74,5.17,inactive
RPAP3 (RNA polymerase II associated protein 3),2,-0.38,0.295,4.43,inactive
RPAP3 (RNA polymerase II associated protein 3),3,-0.327,0.664,2.56,inactive
PDK3 (pyruvate dehydrogenase kinase 3),1,1.02,10.1,8.96,inactive
PDK3 (pyruvate dehydrogenase kinase 3),2,-1.04,-4.36,3.94,inactive
PDK3 (pyruvate dehydrogenase kinase 3),3,-0.883,-3.24,2.88,inactive
USP16 (ubiquitin specific peptidase 16),1,0.688,7.81,8.28,inactive
USP16 (ubiquitin specific peptidase 16),2,-1.31,-6.25,2.7,inactive
USP16 (ubiquitin specific peptidase 16),3,0.277,4.92,5.74,inactive
OR11L1 (olfactory receptor family 11 subfamily L member 1),1,-0.786,-2.57,2.88,inactive
OR11L1 (olfactory receptor family 11 subfamily L member 1),2,-0.893,-3.32,2.2,inactive
OR11L1 (olfactory receptor family 11 subfamily L member 1),3,-0.645,-1.57,4.14,inactive
TFF3 (trefoil factor 3),1,0.233,4.6,7.17,inactive
TFF3 (trefoil factor 3),2,-0.218,1.43,4.46,inactive
TFF3 (trefoil factor 3),3,-0.414,0.0517,3.37,inactive

In a second layout: 6 of the entries above.
gene knocked down | siRNA no. | G2 robust z-score | G2 cells, % of GMNN control | raw share of cells in G2 (%) | activity call
USP16 (ubiquitin specific peptidase 16) | 2 | -1.31 | -6.25 | 2.7 | inactive
USP16 (ubiquitin specific peptidase 16) | 3 | 0.277 | 4.92 | 5.74 | inactive
OR11L1 (olfactory receptor family 11 subfamily L member 1) | 1 | -0.786 | -2.57 | 2.88 | inactive
OR11L1 (olfactory receptor family 11 subfamily L member 1) | 2 | -0.893 | -3.32 | 2.2 | inactive
OR11L1 (olfactory receptor family 11 subfamily L member 1) | 3 | -0.645 | -1.57 | 4.14 | inactive
TFF3 (trefoil factor 3) | 1 | 0.233 | 4.6 | 7.17 | inactive

More results follow:
gene knocked down,siRNA no.,G2 robust z-score,"G2 cells, % of GMNN control",raw share of cells in G2 (%),activity call
CD19 (CD19 molecule),1,-0.0961,2.29,6.38,inactive
CD19 (CD19 molecule),2,0.863,9.04,7.4,inactive
CD19 (CD19 molecule),3,3.24,25.8,13.6,inactive
MAP3K9 (mitogen-activated protein kinase kinase kinase 9),1,-0.676,-1.79,5.02,inactive
MAP3K9 (mitogen-activated protein kinase kinase kinase 9),2,0.204,4.4,6.89,inactive
MAP3K9 (mitogen-activated protein kinase kinase kinase 9),3,-0.0204,2.82,5.02,inactive
NBPF15 (NBPF member 15),1,-0.0305,2.75,4.11,inactive
NBPF15 (NBPF member 15),2,2.39,19.8,9.28,inactive
NBPF15 (NBPF member 15),3,-0.809,-2.72,2.65,inactive
HELZ (helicase with zinc finger),1,-0.641,-1.54,4.12,inactive
HELZ (helicase with zinc finger),2,-0.472,-0.35,3.08,inactive
HELZ (helicase with zinc finger),3,1.55,13.9,10.5,inactive
NXPH2 (neurexophilin 2),1,-0.0465,2.64,6.02,inactive
NXPH2 (neurexophilin 2),2,-0.457,-0.248,4.03,inactive
NXPH2 (neurexophilin 2),3,0.0473,3.3,4.41,inactive
"MYC (MYC proto-oncogene, bHLH transcription factor)",1,-1.32,-6.31,1.11,inactive
"MYC (MYC proto-oncogene, bHLH transcription factor)",2,-1.31,-6.28,2.93,inactive
"MYC (MYC proto-oncogene, bHLH transcription factor)",3,0.364,5.53,7.66,inactive
ZNF586 (zinc finger protein 586),1,-0.291,0.922,3.12,inactive
ZNF586 (zinc finger protein 586),2,-1.14,-5.05,3.63,inactive
ZNF586 (zinc finger protein 586),3,-0.34,0.577,3.81,inactive
AURKB (aurora kinase B),1,13.6,98.4,36.2,active
AURKB (aurora kinase B),2,9.73,71.4,31.2,active
AURKB (aurora kinase B),3,5.77,43.6,17.6,active
SERGEF (secretion regulating guanine nucleotide exchange factor),1,0.946,9.63,10.5,inactive
SERGEF (secretion regulating guanine nucleotide exchange factor),2,0.0455,3.29,5.28,inactive
SERGEF (secretion regulating guanine nucleotide exchange factor),3,0.779,8.45,6.76,inactive
